# PubChem BioAssay AID504433 (National Center for Advancing Translational Sciences (NCATS), 2011)
# Inconclusive results, whose numbers are uncertain, are shown with a selection of clear calls. A potency beside an inconclusive call is a rough fit, not a confirmed value. The source made the active and inactive calls. The call rests on the fitted dose curve; in most records, active means well fitted inhibition curve with a large enough effect; inconclusive means small, poorly fitted or top-dose-only effect; inactive means flat fitted curve, though single readings scatter.
# Experiment: Secondary Assay for lipid storage modulators: Cytotoxcity for probe SAR round 2
# Conditions: Drosophila S3 cells viability, CellTiter-Glo ATP luminescence, 24 h; series mostly up to 46.1 µM
# Excerpt: NIH Molecular Libraries Probe Production Centers Network [MLPCN] NIH Chemical Genomics Center [NCGC] MLPCN Grant: 1 R03 MH085686-01 Assay Submitter (PI): Beller, Mathias; Max-Planck-Institut fur Biophysikalische Chemie, Germany. NCGC Assay Overview: Storing lipids as a reservoir for energy or the anabolism of elementary metabolites is a common feature of probably all cells and is conserved from bacteria to humans. The universal cellular lipid storage organelle is the so-called lipid storage droplet (LD). Although ubiquitous, LDs share a simple structure composed of a hydrophobic core that harbors the storage lipids, which is shielded by a droplet-specific phospholipid monolayer to which proteins are attached. The current model of LD biogenesis involves an incorporation of the lipid core into the membrane leaflets of the endoplasmic reticulum (ER) followed by a subsequent budding-like maturation of a LD, which ultimately pinches off. Once released, LD volume can increase by localized lipogenesis or fusion of existing droplet. Storage lipids are re-mobilized enzymatically by lipase activity. Lipase regulation in the adipocyte is heavily studied and involves multiple components including catecholamine signaling, the LD-associated proteins Perilipin and comparative gene identification (CGI-58) and at least two lipases named hormone sensitive lipase (HSL) and adipocyte triglyceride lipase (ATGL). LD regulation outside of the adipocyte is poorly understood and only few components are known. However, there is an urgent need to learn more about ectopic fat depots as mislocalized storage of lipids, for example in the liver or muscle, is an eminent health problem associated with insulin resistance or the metabolic syndrome. We developed a laser-scanning cytometer assay to enable 1,536-well screening and combined the results of the small molecules screen with an RNAi database based on lipid storage. The compound was tested here for cytotoxcity using CellTiter-Glo.
# Assay Protocol Summary: Cytotoxcity assay was performed with embryonic Drosophila S3 cells (Bloomington Drosophila Genomics Resource Center [DGRC]). We dispensed 4 uL of cells at 1.25 x 10^6 cells/mL into Greiner solid white 1,536-well plates with a bottle-valve solenoid-based dispenser (Aurora) to obtain 5,000 cells/well. A total of 23 nL of compound solution of different concentrations were transferred to the assay plates using a Kalypsys pin tool equipped with a 1,536-pin array containing 10-nL slotted pins (FP1S10, 0.457-mm diameter, 50.8 mm long; V&P Scientific). One microliter of oleic acid (400 uM) was added, and the plate was lidded with stainless steel rubber gasket lined lids containing pinholes. After 24 hrs of incubation at 24 degrees Celsius and 95% humidity, 4 uL of CellTiter-Glo (Promega) was added to the wells. Luminescence was detected on the Perkin Elmer ViewLux.
row,Structure (SMILES),Potency
1,CC(C)(C)OC(=O)NCCOCCOCCOc1cccc(-n2ncc3c2CCCC3NC(=O)c2ccccn2)c1 (centres undefined),active: 5.6 µM
2,O=C(NC1CCCc2c1cnn2CCO)c1ccccn1 (centres undefined),"inconclusive: 11.2 µM [falling, partial curve, poor fit]"
3,CCOC(=O)C1CCN(C(=O)C(C)(C)NC(=O)Nc2ccccc2Cl)CC1,inactive
4,CCOC(=O)C1CCN(C(=O)C(C)(C)NC(=O)Nc2ccc3sccc3c2)CC1,"inconclusive: 28.1 µM [falling, partial curve, poor fit]"
5,CCOC(=O)C1CCN(C(=O)C(C)(C)NC(=O)Nc2ccc3c(c2)CCC3)CC1,inactive
6,CCOc1ccc(CCNC(=O)c2cc3sccc3n2Cc2cccc(C)c2)cc1OCC,"inconclusive: 11.2 µM [falling, partial curve]"
7,CCOC(=O)C1CCN(C(=O)C(C)(C)NC(=O)Nc2ccc(F)c(F)c2)CC1,inactive
8,CCOC(=O)C1CCN(C(=O)C(C)(C)NC(=O)Nc2ccc(C#N)cc2)CC1,inactive
9,CCNC(=O)C1CCN(C(=O)C(C)(C)NC(=O)Nc2ccccc2Cl)CC1,inactive
10,O=C(NC1CCCc2c1cnn2-c1cccc(O)c1)c1ccccn1 (centres undefined),"inconclusive: 4.45 µM [falling, partial curve]"
11,O=C(N[C@H]1CCCc2c1cnn2-c1ccc(F)cc1F)c1ccccn1,inactive
12,O=C(NC1CCCc2c1cnn2-c1ccc(F)cc1F)c1ccccn1 (centres undefined),"inconclusive: 8.88 µM [falling, partial curve]"
13,CC(C)(C)OC(=O)NCCOCCOCCOCCn1ncc2c1CCCC2NC(=O)c1ccccn1 (centres undefined),"inconclusive: 15.8 µM [falling, partial curve]"
14,COc1ccc(-n2ncc3c2CCCC3NC(=O)c2ccccn2)cc1 (centres undefined),"inconclusive: 15.8 µM [falling, partial curve]"
15,CC(C)(C)OC(=O)NCCOCCOCCOc1ccc(-n2ncc3c2CCCC3NC(=O)c2ccccn2)cc1 (centres undefined),active: 3.15 µM
16,CCOC(=O)C1CCN(C(=O)C(C)(C)NC(=O)Nc2ccc(-c3ccccc3)cc2)CC1,"inconclusive: 17.7 µM [falling, partial curve]"
17,COc1cccc(-n2ncc3c2CCCC3NC(=O)c2ccccn2)c1 (centres undefined),"inconclusive: 3.53 µM [falling, partial curve]"
18,O=C(NC1CCCc2c1cnn2-c1ccc(O)cc1)c1ccccn1 (centres undefined),"inconclusive: 5.6 µM [falling, partial curve]"
19,CCOC(=O)C1CCN(C(=O)C(C)(C)NC(=O)Nc2ccc(C(F)(F)F)cc2Cl)CC1,"inconclusive: 11.2 µM [falling, partial curve]"
20,CC(C)(NC(=O)Nc1ccccc1Cl)C(=O)N1CCC(C(=O)O)CC1,inactive
21,O=C(NC1CCCc2c1cnn2-c1ccc(F)cc1F)c1cccs1 (centres undefined),active: 5.6 µM
22,CCOC(=O)C1CCN(C(=O)C(C)(C)NC(=O)Nc2ccc(Oc3ccccc3)cc2)CC1,"inconclusive: 15.8 µM [falling, partial curve]"
23,CCOC(=O)C1CCN(C(=O)C(C)(C)NC(=O)Nc2ccc([N+](=O)[O-])cc2)CC1,"inconclusive: 15.8 µM [falling, partial curve, poor fit]"
24,CCN(CC)C(=O)C1CCN(C(=O)C(C)(C)NC(=O)Nc2ccccc2Cl)CC1,inactive

# Some of these compounds in order of molecular weight, high to low.
row,Structure (SMILES),Potency
8,CCOC(=O)C1CCN(C(=O)C(C)(C)NC(=O)Nc2ccc(C#N)cc2)CC1,inactive
21,O=C(NC1CCCc2c1cnn2-c1ccc(F)cc1F)c1cccs1 (centres undefined),active: 5.6 µM
2,O=C(NC1CCCc2c1cnn2CCO)c1ccccn1 (centres undefined),"inconclusive: 11.2 µM [falling, partial curve, poor fit]"
